Among the data in the supplement of paper PMC5949888 are growth estimate values, retold here.

Most values lie at the floor of the assay. Slopes are relative: functional sequences can read slightly below zero.

The data set relates to Saccharomyces cerevisiae PS128 hsf1 delta, HSF1(1-493) fusion. Kind of data set: growth estimate (transactivation domain function in HSF1 fusion, heat-shock survival) (a.u. (slope of normalised read count over time)); higher = stronger growth at 37°C, i.e. more transactivation activity. As to conditions: library: random library.
As for YPAVDLSHMQQAIR, the growth estimate was under -0.25. The value for LLEPEISSGVRVRRFAPTDQ was under -0.25. The value for SVYRRMGSVRARSEPFLSRT was under -0.25. With GIRLFGSCVNIGFPKGGSGV the figure was under -0.25. For GSETWTGCKTREQN, the growth estimate was under -0.25. Consider HQTSMPHPHCLGCVGVLVSH, for which the growth estimate is under -0.25. As to LGSGYDVAGLQSEIRERRPG, the growth estimate was under -0.25.

On to FILGTPATYALMVLLHTRLR, for which the growth estimate is under -0.25. TATVRCSREV: the growth estimate was under -0.25. Consider SVTG, for which the growth estimate was under -0.25. With ASEIPPRPI the figure was -0.185; with FSPNFVYP, under -0.25; with SRPELSQ, -0.217. With GLDSYLRHRARDRTALRYGI the figure was -0.249; with LVMTIGHAIADPNYSGHARM, under -0.25.

As to RRLVSLALSAVPRLKGIVET, the growth estimate was under -0.25. Consider LRLLKVLDRCLCERGLRGAD, for which the growth estimate was under -0.25.

For the substance NGPLWL, the growth estimate was under -0.25. In the case of CTHSKLNMVYGGWAPALGSS, the growth estimate is under -0.25. The value for SSNTG was 0.106. On to WTGATVATRDDLVLGLSAHV, for which the growth estimate is under -0.25. The value for LVKSAL was under -0.25. The value for VLVWFHPETLNTTSCTS was -0.248; that for CYYAWPGARSVGTRVSCVIA was under -0.25; that for PAVQGNKWRKSIGNQTVLLS was under -0.25. With KSRLRKYWSYAIQYIIIGVS the figure was under -0.25; with SRAV, under -0.25.

As for YLRFLGEERSLIIKALRYPV, the growth estimate was under -0.25. Take VGGPLAKNGLLKFEFPQRTN: the growth estimate is under -0.25.

In the case of PSNQTSIRTIGKKKIAPSLN, the growth estimate was under -0.25. Consider WRCQ, for which the growth estimate is under -0.25. Turning to VIWNKWAVESCTLTGHPA, the growth estimate was under -0.25.

With RILSDSYGRHLLAGRAIWWV, the growth estimate is under -0.25. With LFYIPEFPRPPASTR the figure was under -0.25; with KVYAGCKGKPGCIDIKIYNL, under -0.25.

Turning to SFRDLPDNNRRDDLLVTLPS, the growth estimate was under -0.25. With GSRGCTQPGSACMVRGC the figure was under -0.25; with EDG, under -0.25. As to RRGVCLELCL, the growth estimate is under -0.25. With LAVLGVPNARFRRCRDVPLV, the growth estimate is under -0.25. With VIRKDGSGSWVSVGVLWVDH the figure was under -0.25. The value for REPRAANLEHSRSPTRARRS was under -0.25; that for RYDYFPNKGRHCDGGARPQL was under -0.25; that for RTPNPFGYTGFKCMSTLRCS was under -0.25. VCGMLIPICWDSVYSLRSKL: the growth estimate was under -0.25. Take VMLAVIWGRLGHPL: the growth estimate is under -0.25. Take CSVYMTGLSVPGCNSPPLGP: the growth estimate is under -0.25. On to IPQVVVVYIDHRKIRR, for which the growth estimate was under -0.25.

Regarding RHQGFVGRHREC, the growth estimate was under -0.25. DPIGLRHRAETPASLR: the growth estimate is under -0.25.

For the substance VWVDRPQGNMVVPSP, the growth estimate was under -0.25. The value for GGSIHMSQFSLVCVRCPVC was under -0.25; that for EKLFLLDCSPSPRRCTLVEP was under -0.25; that for VREFSHYICFKRPPRLWLSH was under -0.25. Take RAVPQMTHTMALYNHRFF: the growth estimate is under -0.25.

VHPHCHRLFGEILTWTFSCR: the growth estimate was under -0.25. With WRDSYVRVPHYINSVLDAQR the figure was under -0.25. Consider RFGMTLSGCLFLN, for which the growth estimate is under -0.25.

Consider NRDRVSGFRAIYERNQAFRY, for which the growth estimate was under -0.25. With QVGRTAAEAKYRRQSKLTER the figure was under -0.25; with RLVKKSLTREGSTIIA, under -0.25. The value for GVTGSLSYA was under -0.25; that for RLEGKHDICCSTSYIGRVAQ was under -0.25; that for ITSSELI was under -0.25. With SRVRCMDGPHPSRLDACRIA the figure was under -0.25. Take VQQAWSYRARLRPKRMSLTG: the growth estimate was under -0.25.

On to RGSISSSLETTHASRGSVDT, for which the growth estimate was under -0.25. With GGQVIRQS, the growth estimate is under -0.25. With QLSCCCRTKLLSFWSWLLSC the figure was -0.205; with GGDKTTGSRVTAVVYARSHG, under -0.25. The value for HDSVSYDRFSPRVLQPLPRS was under -0.25; that for ICVG was under -0.25. With NQA the figure was under -0.25.

Regarding TTRA, the growth estimate is 0.066. For the substance VEYE, the growth estimate was under -0.25. The value for SERIS was under -0.25; that for QGIREVTGCASPIHTNSVRP was under -0.25; that for GLSMRPSETDPAIADCRSEH was under -0.25. The value for KKLSDRDRPLRSGDGSCLGH was under -0.25; that for DGVG was under -0.25. Consider RSYPRVGNGHARWLSKGGPN, for which the growth estimate is under -0.25. With LLTVVWCFDDDLRLLLRT the figure was under -0.25.

In the case of RVSGRLRSHMG, the growth estimate was under -0.25. The value for TQCASRCQRAHVMRIGPSAT was under -0.25; that for GLGPRAGLMPHNISTDRLRQ was under -0.25; that for RGHTGV was under -0.25. With PKEYKVLVCLASLFTWGPVP the figure was under -0.25. With RYRGLGQVSHSKLISLDSSH the figure was under -0.25; with KWGGDTGGQPH, under -0.25. With IGILPNSMHRWDLH, the growth estimate was under -0.25. In the case of LLYWINDTKTADTVRLPNRH, the growth estimate is under -0.25. With GFVWEHVGRALHGCQ the figure was under -0.25; with DEHEQ, under -0.25; with VVIAAVSHTVL, under -0.25. In the case of LPRCMVPGTGERGWVQSKLH, the growth estimate is under -0.25. FWRRRSNLGREGWTGQATIR: the growth estimate was under -0.25. As to LMCFERLICVEPLRSNDTGP, the growth estimate is under -0.25. As for QLRFEHAPRPTSSRSGHLS, the growth estimate is under -0.25.

As for LSLLVPAQFLVIKPGRLCRC, the growth estimate was under -0.25.

As for GHRSVAGKAVEALFDQGRGA, the growth estimate is under -0.25. With NRTQFVHCFR the figure was under -0.25; with ILIGPCL, under -0.25. With GVSHQRPVALRHGLRILRVR the figure was -0.208; with TLGTEVACMVVPQNIGVLKR, under -0.25.

As for AIVTVEATACASCILVQALL, the growth estimate is under -0.25. Turning to WKSN, the growth estimate is under -0.25. TTNLVR: the growth estimate was under -0.25. With GIQTLGTYALSVKAGSYVRP, the growth estimate is under -0.25.

Consider STVEFEFRHLLCPAQMGS, for which the growth estimate is under -0.25. HSIRSILSDVKMVTPSGDRG: the growth estimate is under -0.25. The value for RSRTSKEDSRSVR was under -0.25; that for VWA was under -0.25; that for HCNLLRRTG was under -0.25.
